Measurements from article PMC4775227, “Molecular mechanism of thermosensory function of human heat shock transcription factor Hsf1” (eLife, 2016).
For at least one entry, the source does not settle the construct or the ends of the probe.

Sequences of proteins named here, by UniProt entry; tags and fusion partners are left off. A change or cut given only in a name is not applied to a line headed by its entry.
UniProt Q00613: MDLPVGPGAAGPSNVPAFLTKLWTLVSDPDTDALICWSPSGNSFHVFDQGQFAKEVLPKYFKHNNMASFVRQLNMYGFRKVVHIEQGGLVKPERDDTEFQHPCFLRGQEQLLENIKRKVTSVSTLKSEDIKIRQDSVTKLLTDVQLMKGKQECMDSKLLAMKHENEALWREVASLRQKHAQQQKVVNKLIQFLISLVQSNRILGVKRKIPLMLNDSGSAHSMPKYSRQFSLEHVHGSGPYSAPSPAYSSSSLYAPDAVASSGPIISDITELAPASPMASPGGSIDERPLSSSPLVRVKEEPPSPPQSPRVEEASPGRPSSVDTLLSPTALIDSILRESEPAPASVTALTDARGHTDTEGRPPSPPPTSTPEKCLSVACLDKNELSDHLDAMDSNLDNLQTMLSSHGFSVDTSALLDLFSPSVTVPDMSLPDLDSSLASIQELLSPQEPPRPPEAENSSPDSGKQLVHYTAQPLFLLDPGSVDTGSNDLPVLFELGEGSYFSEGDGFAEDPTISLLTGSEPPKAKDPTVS

Target: Hsf1 (heat-activated trimer) (Homo sapiens) (UniProt Q00613)
Assay: fluorescence anisotropy
Conditions: global fit for fully active trimer, Hsf1 pre-incubated 10 min at 30-42 C; Hsf1-buffer: 25 mM Hepes pH 7.4, 150 mM NaCl, 10% glycerol, 2 mM DTT; binding at room temperature after 10 min pre-incubation at the stated temperature; recombinant protein; protein details: 6xHis-SUMO removed by Ulp1; label: 5'-Alexa Fluor 488

## CCCCTTCCCGAATATTCCCCC (double strand) [HSE-DNA (three HSEs), Alexa 488]
  Kd: 1.1 nM
